The numbers were not newly measured in US8357692B2, “Methods of treatment of bone degenerative diseases” (Washington University, priority 2010, dated 2013), which cites them from elsewhere.

The data set concerns P. falciparum FCR-3. Conditions: Table 1; cytotoxicity/antimalarial activity; cited from earlier work.
In the case of `O=c1c2ccccc2ccn1CC1(O)C[C@@H]2NCCC[C@@H]2O1` (stereo partly drawn) [compound 15], the selectivity is given as above 3.
Turning to `O=c1c2ccccc2ncn1CC1(O)C[C@@H]2NCCC[C@@H]2O1` (stereo partly drawn) [compound 2, isofebrifugine], the selectivity is listed as 53.
`O=c1c2ccccc2ncn1CC(O)C[C@H]1NCCC[C@@H]1O` (stereo partly drawn) [compound 8]: the selectivity is 750.
For the molecule `O=c1ccncn1CC1(O)C[C@@H]2NCCC[C@@H]2O1` (stereo partly drawn) [compound 13], the selectivity is on record as 175.
`O=C(C[C@H]1NCCC[C@@H]1O)Cn1cnc2ccccc2c1=O` [compound 1, febrifugine]: the selectivity is 243.
Regarding `O=C(CC1NCCCC1=O)Cn1cnc2ccccc2c1=O` (stereo not drawn) [compound 7], the selectivity is on record as 500.
